From patent publication US20170349667A1
These are yes or no findings as the source states them, for the method shown. For part of these data: Binding can be weak; no strength is given. Values belong to the binder of their own block, whether it stands above or below them.

Tests used:
[1] = biological target: llama-human c-Met chimera LS2 (aa1-199) (Llama glama; human); experiment: SPR, 36C4 coupled to CM-5 chip
[2] = biological target: llama-human c-Met chimera LS3 (aa1-287) (Llama glama; human); experiment: SPR, 36C4 coupled to CM-5 chip
[3] = biological target: llama-human c-Met chimera LS4 (aa1-348) (Llama glama; human); experiment: SPR, 36C4 coupled to CM-5 chip
[4] = biological target: llama-human c-Met chimera LS5 (aa1-448) (Llama glama; human); experiment: SPR, 36C4 coupled to CM-5 chip
[5] = biological target: c-Met SEMA domain (ectodomain fragment) (human); experiment: ELISA, coated c-Met ectodomains
[6] = biological target: c-Met SEMA-PSI (ectodomain fragment) (human); experiment: ELISA, SEMA-PSI coated, anti-human Fc detection
[7] = biological target: llama-human c-Met chimera L110 (aa608-909) (human; Llama glama); experiment: SPR, 36C4 coupled to CM-5 chip, chimera at 10 µg/ml
[8] = biological target: llama-human c-Met chimera L111 (aa634-909) (human; Llama glama); experiment: as above
[9] = biological target: llama-human c-Met chimera L18 (aa540-909) (human; Llama glama); experiment: as above
[10] = biological target: llama-human c-Met chimera L19 (aa572-909) (human; Llama glama); experiment: as above
[11] = biological target: llama-human c-Met chimera LP6 (aa497-909) (human; Llama glama); experiment: as above
[12] = biological target: llama-human c-Met chimera LP7*(aa523-909), T737I (human; Llama glama); experiment: as above
[13] = biological target: llama-human c-Met chimera LS1 (aa1-98) (Llama glama; human); experiment: as above
[14] = biological target: c-Met SEMA domain (ectodomain fragment) (human); experiment: ELISA, c-Met ectodomains coated at 1 µg/ml, HRP-Protein A
[15] = biological target: llama-human c-Met chimera LS2 (aa1-199) (Llama glama; human); experiment: ELISA, 36C4 coated at 2 µg/ml, chimera detected with streptavidin-HRP
[16] = biological target: llama-human c-Met chimera LS3 (aa1-287) (Llama glama; human); experiment: as above
[17] = biological target: llama-human c-Met chimera LS4 (aa1-348) (Llama glama; human); experiment: as above
[18] = biological target: llama-human c-Met chimera LS5 (aa1-448) (Llama glama; human); experiment: as above
[19] = biological target: c-Met SEMA-PSI (ectodomain fragment) (human); experiment: ELISA: SEMA-PSI coated, parental mAb, HRP goat anti-human Fc, 620 nm
[20] = biological target: Llama glama c-Met ECD (aa 25-932) with His tag (Llama glama); experiment: ELISA: 200 ng of recombinant c-Met ECD protein coated, mAb 1 h, HRP goat anti-human antibody, TMB, OD 620 nm
[21] = biological target: c-Met SEMA domain (ectodomain fragment) (human); experiment: ELISA: c-Met ectodomain coated at 1 µg/ml, mAb in three-fold dilutions from 1 µg/ml, HRP-Protein A, TMB, OD 450
[22] = biological target: c-Met SEMA-PSI (ectodomain fragment) (human); experiment: as above
[23] = biological target: c-Met SEMA-PSI-IPT1-2 (ectodomain fragment) (human); experiment: as above
[24] = biological target: llama-human c-Met chimera LP6 (aa497-909) (human; Llama glama); experiment: SPR, 48A2 coupled to CM-5 chip
[25] = biological target: llama-human c-Met chimera LP7*(aa523-909), T737I (human; Llama glama); experiment: SPR, 48A2 coupled to CM-5 chip
[26] = biological target: llama-human c-Met chimera L111 (aa634-909) (human; Llama glama); experiment: SPR, 48A2 coupled to CM-5 chip, chimera at 10 µg/ml
[27] = biological target: llama-human c-Met chimera LS1 (aa1-98) (Llama glama; human); experiment: as above
[28] = biological target: llama-human c-Met chimera LS2 (aa1-199) (Llama glama; human); experiment: as above
[29] = biological target: llama-human c-Met chimera LS3 (aa1-287) (Llama glama; human); experiment: as above
[30] = biological target: llama-human c-Met chimera LS4 (aa1-348) (Llama glama; human); experiment: as above
[31] = biological target: llama-human c-Met chimera LS5 (aa1-448) (Llama glama; human); experiment: as above
[32] = biological target: llama-human c-Met chimera LP6 (aa497-909) (human; Llama glama); experiment: ELISA, 48A2 coated at 2 µg/ml, chimera detected with streptavidin-HRP
[33] = biological target: llama-human c-Met chimera LP7*(aa523-909), T737I (human; Llama glama); experiment: as above
[34] = biological target: human c-Met ECD (aa 25-932) with His tag (human); experiment: ELISA on chimeric c-Met ECD
[35] = biological target: c-Met IPT3-4 (ectodomain fragment) (human); experiment: ELISA on coated c-Met ectodomains
[36] = biological target: Decoy c-Met (extracellular domain of human c-Met) (human); experiment: ELISA, c-Met ectodomains coated at 1 µg/ml, HRP-Protein A
[37] = biological target: human c-Met ECD (aa 25-932) with His tag (human); experiment: ELISA, 200 ng coated c-Met ECD construct, anti-human HRP detection
[38] = biological target: human c-Met ECD (aa 25-932) with His tag (human); experiment: ELISA: 200 ng of recombinant c-Met ECD protein coated, mAb 1 h, HRP goat anti-human antibody, TMB, OD 620 nm

binding [1]: no binding (tested: 10 µg/ml) | binding [2]: no binding (tested: 10 µg/ml) | binding [3]: no binding (tested: 10 µg/ml) | binding [4]: no binding (tested: 10 µg/ml) | binding [5]: binds | binding [6]: binds | binding [7]: binds | binding [8]: binds | binding [9]: binds | binding [10]: binds | binding [11]: binds | binding [12]: binds | binding [13]: binds | binding [14]: binds | binding [15]: no binding | binding [16]: no binding | binding [17]: no binding | binding [18]: no binding | binding [19]: binds | binding [20]: no binding (tested: about 1e-7 M) | binding [21]: binds | binding [22]: binds | binding [23]: binds
B1: 36C4 mAb (antibody, human IgG1, V domains shown)
VH: QVQLVESGPGLVKPSQTLSLTCAVSGGSITTNYYYWSWIRQSPGKGLEWMGVIAYDGSTDYSPSLKSRTSISRDTSKNQFSLQLSSVTPEDTAVYYCARDVRVIATGWATANALDAWGQGTLVTVSS
VL: QSVLTQPPSVSGSPGKTVTISCAGTSSDVGYGNYVSWYQQLPGTAPKLLIFAVSYRASGIPDRFSGSKSGNTAFLTISGLQSEDEADYYCASYRSSNNAAVFGGGTHLTVL

binding [24]: no binding (tested: 10 µg/ml) | binding [25]: no binding (tested: 10 µg/ml) | binding [26]: binds | binding [27]: binds | binding [28]: binds | binding [29]: binds | binding [30]: binds | binding [31]: binds | binding [32]: no binding | binding [33]: no binding
B2: 48A2 mAb (antibody, human IgG1, V domains shown)
VH: EVQLVQPGVELRNPGASVKVSCKASGYIFTMNSIDWVRQAPGQGLEWMGRIDPEDGGTKYAQKFQGRVTFTADTSTSTAYVELNSLRSEDTAVYYCARVDDYYLGYDYWGQGTQVTVSS
VL: DIVMTQTPTSVTASAGDKVTINCKSSQSVLFSSNQKNYLAWYQQRLGQSPRLLIYWASIRESGVPDRFSGSGSATDFTLTISNFQPEDAAVYYCQQGYSFPYSFGSGTRLEIR

binding [34]: binds | binding [35]: no binding (tested: 1 µg/ml) | binding [36]: binds | binding [37]: binds | binding [20]: no binding (tested: about 1e-7 M) | binding [38]: binds
B3: 13E6 mAb (antibody, human IgG1, V domains shown)
VH: QVQLQESGGDLVQPGGSLRLSCAASGFTFDDYVMNWVRQAPGKGLEWISAINWNGGSTYYAESMKGRFTISRDNAKNTLYLQMYSLQSDDTAVYYCVKDTVVSGNGYWGQGTQVTVSS
VL: QSVLTQPPSVSGTLGKTVTISCAGTSSDIGDYNYVSWYQQLPGTAPKLLIYDVNKRASGIPDRFSGSKSGNTASLSISGLQSEDEADYYCASYRSRNDYAFGGGTKLTVL
